In publication PMC9321427:
These are yes or no findings as the source states them, for the method shown. Binding seen in cells or lysates may run through a third protein. Some results given as binding are weak or reduced against the parent protein; the word gives no strength.

Amino acid sequences for entries named in this document (tags omitted). Residues count along the entry.
UniProt P55085, residues 37-397: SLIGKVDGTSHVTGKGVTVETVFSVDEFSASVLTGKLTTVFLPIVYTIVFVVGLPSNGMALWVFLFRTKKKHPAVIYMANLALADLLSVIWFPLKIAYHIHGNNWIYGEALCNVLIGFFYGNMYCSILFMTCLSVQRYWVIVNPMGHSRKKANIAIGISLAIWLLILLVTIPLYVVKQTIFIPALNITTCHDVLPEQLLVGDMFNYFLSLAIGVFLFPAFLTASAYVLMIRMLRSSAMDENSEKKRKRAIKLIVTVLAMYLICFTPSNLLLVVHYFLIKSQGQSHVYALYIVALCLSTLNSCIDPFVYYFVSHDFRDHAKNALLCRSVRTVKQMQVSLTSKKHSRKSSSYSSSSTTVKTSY
UniProt P49407: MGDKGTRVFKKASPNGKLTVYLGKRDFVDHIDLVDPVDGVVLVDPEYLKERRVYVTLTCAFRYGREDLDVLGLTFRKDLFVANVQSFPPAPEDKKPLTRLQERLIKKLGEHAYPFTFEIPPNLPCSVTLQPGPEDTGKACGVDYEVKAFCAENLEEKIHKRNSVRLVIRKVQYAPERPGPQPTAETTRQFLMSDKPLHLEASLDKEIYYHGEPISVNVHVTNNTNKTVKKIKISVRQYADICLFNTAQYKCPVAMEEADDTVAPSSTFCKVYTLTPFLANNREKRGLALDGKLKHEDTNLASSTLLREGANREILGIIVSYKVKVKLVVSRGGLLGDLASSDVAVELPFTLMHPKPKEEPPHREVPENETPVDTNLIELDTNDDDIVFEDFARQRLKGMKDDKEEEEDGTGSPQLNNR

Target: PAR2-Rluc8 cleaved after Arg36 by trypsin or GzmK (tethered ligand exposed) (human) (UniProt P55085)
Assay: FRET or BRET; BRET between PAR2-Rluc8 and β-arrestin1-YFP in transfected HEK 293 cells; cells in Hank's Buffered Salt Solution pH 7.4, 37°C, treated with trypsin (10 nM) or GzmK (100 nM) for 2 h, then 5 μM coelenterazine

- binding: binds
Substance: β-arrestin1-YFP (from UniProt P49407 1-418)
